Measurements from the supplement of paper PMC6411743.
± gives the standard deviation of the averaged measurements. This is a selection; strong and weak results do not stand in their true shares.

Protein sequences, listed by entry. Tags and fused reporters are not part of them. Lines headed by an entry give the natural chain unless they say otherwise; changes in a name come on top.
UniProt Q96PU4: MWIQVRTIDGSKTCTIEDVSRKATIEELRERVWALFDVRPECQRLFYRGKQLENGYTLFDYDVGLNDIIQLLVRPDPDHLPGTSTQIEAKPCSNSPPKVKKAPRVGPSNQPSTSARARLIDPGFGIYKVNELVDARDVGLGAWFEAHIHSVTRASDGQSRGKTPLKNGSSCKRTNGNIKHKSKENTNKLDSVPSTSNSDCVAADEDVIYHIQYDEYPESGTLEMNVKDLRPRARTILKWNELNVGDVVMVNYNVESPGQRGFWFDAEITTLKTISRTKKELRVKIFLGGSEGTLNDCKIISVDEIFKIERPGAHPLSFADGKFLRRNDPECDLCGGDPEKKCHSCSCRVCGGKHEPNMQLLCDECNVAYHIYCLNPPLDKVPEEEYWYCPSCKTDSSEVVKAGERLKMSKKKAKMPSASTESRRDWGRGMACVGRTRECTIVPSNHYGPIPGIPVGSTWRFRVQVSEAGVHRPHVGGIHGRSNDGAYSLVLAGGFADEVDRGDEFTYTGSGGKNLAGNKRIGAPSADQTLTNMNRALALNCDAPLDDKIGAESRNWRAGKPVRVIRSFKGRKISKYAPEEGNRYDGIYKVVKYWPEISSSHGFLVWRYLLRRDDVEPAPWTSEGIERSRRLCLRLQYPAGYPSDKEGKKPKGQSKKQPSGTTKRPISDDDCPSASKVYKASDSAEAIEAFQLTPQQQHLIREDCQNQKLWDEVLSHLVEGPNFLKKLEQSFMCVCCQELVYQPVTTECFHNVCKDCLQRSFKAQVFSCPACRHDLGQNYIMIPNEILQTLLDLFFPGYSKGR
UniProt Q96CS2: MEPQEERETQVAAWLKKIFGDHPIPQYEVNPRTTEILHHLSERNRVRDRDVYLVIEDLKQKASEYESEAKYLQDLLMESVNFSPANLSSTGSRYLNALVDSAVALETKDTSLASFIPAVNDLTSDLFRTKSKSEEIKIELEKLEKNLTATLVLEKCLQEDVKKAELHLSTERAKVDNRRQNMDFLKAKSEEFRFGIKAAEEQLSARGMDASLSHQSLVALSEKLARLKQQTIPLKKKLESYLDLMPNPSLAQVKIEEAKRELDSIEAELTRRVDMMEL
UniProt Q96MX6, whole entry: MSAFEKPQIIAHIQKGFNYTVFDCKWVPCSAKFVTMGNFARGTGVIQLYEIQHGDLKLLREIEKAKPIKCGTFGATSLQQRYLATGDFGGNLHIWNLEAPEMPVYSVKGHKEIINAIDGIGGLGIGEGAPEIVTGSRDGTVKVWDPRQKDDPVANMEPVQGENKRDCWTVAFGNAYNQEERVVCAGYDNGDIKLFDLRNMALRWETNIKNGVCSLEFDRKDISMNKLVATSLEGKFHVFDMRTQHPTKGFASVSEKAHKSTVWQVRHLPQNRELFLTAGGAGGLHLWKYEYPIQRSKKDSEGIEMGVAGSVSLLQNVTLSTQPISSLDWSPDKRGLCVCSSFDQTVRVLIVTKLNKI
UniProt Q96KC2: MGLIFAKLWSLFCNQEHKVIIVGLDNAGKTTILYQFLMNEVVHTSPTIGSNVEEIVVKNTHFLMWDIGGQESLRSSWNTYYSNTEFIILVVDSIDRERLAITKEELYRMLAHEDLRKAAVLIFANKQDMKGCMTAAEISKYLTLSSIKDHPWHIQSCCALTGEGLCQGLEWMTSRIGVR
UniProt Q96PM5: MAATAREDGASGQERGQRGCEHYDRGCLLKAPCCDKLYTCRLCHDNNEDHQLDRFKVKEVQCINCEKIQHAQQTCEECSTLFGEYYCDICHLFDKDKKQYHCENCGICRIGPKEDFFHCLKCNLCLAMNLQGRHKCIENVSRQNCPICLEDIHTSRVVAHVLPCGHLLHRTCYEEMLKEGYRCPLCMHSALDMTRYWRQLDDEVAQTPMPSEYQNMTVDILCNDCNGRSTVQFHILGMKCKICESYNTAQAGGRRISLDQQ
UniProt Q96PE7: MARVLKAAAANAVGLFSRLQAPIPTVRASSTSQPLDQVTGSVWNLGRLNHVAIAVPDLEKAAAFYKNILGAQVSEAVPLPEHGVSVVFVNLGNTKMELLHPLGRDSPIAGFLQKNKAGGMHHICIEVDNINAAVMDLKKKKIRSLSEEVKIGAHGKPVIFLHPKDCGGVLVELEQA
UniProt Q96D71: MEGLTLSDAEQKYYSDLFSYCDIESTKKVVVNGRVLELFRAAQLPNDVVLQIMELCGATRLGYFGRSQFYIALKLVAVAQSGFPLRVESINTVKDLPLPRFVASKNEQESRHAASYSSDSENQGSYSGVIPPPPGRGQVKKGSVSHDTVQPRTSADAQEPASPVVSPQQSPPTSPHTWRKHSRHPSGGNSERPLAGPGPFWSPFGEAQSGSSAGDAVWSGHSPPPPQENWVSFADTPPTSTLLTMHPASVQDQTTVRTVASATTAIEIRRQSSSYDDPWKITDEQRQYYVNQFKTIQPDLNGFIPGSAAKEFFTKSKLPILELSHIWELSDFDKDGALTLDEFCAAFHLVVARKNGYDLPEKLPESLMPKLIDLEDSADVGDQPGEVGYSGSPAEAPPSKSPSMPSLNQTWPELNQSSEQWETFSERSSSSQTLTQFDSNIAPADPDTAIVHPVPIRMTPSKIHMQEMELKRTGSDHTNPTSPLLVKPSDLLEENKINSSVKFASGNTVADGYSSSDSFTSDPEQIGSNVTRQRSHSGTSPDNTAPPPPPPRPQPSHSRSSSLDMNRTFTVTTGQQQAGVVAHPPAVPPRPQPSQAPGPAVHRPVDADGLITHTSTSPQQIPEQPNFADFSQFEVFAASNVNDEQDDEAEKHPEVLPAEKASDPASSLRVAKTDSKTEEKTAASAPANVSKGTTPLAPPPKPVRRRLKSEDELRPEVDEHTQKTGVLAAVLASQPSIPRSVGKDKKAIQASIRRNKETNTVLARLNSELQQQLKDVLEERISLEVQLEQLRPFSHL
UniProt Q96NW4, whole entry: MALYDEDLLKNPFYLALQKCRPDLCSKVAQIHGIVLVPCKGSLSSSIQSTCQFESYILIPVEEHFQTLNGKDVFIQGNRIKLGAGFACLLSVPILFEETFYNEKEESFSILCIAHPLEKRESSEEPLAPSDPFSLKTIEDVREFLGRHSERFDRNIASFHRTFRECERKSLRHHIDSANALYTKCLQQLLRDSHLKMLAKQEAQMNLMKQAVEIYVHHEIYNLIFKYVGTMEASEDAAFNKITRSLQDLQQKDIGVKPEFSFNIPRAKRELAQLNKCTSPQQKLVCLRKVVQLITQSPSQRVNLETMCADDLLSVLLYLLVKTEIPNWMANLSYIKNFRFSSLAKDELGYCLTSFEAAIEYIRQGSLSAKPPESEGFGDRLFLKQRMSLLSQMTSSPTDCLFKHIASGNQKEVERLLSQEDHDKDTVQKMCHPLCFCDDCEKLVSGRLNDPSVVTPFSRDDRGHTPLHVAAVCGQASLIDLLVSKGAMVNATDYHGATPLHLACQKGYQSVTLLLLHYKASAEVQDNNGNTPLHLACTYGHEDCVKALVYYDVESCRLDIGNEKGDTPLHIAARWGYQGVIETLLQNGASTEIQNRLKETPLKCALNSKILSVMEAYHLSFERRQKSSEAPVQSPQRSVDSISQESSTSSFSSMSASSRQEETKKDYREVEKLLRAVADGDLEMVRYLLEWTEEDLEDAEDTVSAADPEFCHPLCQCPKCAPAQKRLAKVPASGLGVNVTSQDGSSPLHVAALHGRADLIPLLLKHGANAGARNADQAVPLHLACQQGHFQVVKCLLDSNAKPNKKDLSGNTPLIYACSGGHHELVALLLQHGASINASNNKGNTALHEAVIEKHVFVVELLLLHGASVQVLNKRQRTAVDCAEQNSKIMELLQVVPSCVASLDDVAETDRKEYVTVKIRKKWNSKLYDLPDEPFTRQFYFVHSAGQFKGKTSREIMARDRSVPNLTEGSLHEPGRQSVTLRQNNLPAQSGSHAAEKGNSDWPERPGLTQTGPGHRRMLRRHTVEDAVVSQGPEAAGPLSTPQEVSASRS
UniProt Q96F63: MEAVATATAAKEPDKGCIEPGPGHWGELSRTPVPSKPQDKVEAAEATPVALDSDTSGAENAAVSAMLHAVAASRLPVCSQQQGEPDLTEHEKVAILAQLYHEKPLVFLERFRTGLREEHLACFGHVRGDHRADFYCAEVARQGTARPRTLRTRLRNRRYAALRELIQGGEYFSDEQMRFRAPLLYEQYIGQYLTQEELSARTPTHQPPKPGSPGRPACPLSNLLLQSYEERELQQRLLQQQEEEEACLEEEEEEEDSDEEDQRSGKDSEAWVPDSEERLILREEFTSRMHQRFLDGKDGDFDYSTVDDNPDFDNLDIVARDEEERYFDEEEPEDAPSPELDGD
UniProt Q96K58: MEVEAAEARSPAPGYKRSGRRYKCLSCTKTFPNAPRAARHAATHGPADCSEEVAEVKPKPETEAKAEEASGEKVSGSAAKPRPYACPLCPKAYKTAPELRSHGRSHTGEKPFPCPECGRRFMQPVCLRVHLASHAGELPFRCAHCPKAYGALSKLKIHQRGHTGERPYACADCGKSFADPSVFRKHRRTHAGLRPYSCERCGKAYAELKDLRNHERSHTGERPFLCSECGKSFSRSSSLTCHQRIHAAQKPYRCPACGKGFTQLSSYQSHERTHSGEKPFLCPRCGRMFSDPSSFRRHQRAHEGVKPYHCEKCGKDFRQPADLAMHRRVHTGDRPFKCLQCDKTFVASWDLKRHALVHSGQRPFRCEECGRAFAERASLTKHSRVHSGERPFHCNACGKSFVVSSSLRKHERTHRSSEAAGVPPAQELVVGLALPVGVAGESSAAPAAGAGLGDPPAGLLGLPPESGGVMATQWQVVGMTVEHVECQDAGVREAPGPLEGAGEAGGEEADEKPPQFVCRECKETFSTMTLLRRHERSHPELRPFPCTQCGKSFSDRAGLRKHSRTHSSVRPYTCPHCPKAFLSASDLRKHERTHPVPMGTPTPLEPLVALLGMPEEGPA
UniProt Q96G23: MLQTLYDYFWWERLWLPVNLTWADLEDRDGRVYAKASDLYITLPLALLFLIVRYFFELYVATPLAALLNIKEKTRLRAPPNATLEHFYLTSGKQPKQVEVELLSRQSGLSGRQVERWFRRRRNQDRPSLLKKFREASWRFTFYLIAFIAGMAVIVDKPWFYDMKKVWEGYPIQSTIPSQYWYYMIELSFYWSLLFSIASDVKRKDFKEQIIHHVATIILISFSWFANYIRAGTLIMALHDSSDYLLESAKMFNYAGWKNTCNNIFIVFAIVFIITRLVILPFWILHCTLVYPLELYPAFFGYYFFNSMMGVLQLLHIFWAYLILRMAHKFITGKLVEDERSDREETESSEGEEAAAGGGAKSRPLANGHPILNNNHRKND
UniProt Q96IZ6: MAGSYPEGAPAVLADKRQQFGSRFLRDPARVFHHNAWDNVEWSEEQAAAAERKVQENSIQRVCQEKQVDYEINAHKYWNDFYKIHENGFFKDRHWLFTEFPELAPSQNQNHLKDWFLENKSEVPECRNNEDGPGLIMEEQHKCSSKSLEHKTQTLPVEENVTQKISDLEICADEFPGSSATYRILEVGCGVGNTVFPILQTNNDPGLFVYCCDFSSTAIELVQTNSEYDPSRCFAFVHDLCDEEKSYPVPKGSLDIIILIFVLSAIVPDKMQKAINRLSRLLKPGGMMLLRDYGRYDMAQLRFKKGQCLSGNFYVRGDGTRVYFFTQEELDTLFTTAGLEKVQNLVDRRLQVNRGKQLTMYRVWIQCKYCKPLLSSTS
UniProt Q96S55: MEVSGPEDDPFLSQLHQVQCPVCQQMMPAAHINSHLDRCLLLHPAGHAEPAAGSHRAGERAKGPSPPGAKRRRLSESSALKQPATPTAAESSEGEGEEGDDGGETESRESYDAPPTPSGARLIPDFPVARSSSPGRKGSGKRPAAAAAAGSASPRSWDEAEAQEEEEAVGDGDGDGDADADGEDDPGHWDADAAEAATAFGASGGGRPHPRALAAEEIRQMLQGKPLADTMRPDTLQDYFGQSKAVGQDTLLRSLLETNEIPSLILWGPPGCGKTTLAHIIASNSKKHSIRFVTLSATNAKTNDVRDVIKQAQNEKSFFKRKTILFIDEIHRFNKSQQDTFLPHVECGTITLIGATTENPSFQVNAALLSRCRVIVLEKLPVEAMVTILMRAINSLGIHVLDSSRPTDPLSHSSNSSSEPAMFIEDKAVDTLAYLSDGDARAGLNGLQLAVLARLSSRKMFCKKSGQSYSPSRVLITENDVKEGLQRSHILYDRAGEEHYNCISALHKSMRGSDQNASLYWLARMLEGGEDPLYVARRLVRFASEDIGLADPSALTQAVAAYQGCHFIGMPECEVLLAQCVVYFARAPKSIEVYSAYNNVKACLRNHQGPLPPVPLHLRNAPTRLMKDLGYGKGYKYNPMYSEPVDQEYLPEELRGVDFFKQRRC
UniProt Q96FX7: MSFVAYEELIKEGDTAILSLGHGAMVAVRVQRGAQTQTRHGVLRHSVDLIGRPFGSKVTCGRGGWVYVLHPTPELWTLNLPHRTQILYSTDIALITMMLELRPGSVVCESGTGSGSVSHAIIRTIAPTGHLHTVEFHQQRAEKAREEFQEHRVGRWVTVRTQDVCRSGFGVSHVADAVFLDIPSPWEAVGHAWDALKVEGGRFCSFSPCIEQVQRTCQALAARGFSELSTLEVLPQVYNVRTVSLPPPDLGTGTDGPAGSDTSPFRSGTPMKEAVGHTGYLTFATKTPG

Compound: Nc1ncnc2c1ncn2[C@@H]1O[C@H](COP(=O)(O)OP(=O)(O)OP(=O)(O)O)[C@@H](O)[C@H]1O [adenosine triphosphate]
Test: NP40-soluble protein abundance relative to vehicle (solubility fold change) (ratio); higher = more soluble protein in presence of ATP
Settings: concentration: 1mM
Method in brief: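 Data come from three independent experiments in which Dounce-homogenised Jurkat crude lysate was treated at eight concentrations from 0.1 to 10 mM. Treatment ran 10 min at room temperature and then 3 min at 37 °C, after which 0.8% NP40 and benzonase were added for 60 min at 4 °C before ultracentrifugation. The supernatant underwent TMT labelling and LC-MS/MS, and vsn-normalised intensities were expressed as fold change against the detergent-processed vehicle in each replicate.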

With UniProt Q96DZ1 and related entries as the target, how does the NP40-soluble protein abundance read?
The NP40-soluble protein abundance was 1.02 ± 0.081.

UniProt Q96RQ3 and related entries was tested. Which NP40-soluble protein abundance did it give?
The NP40-soluble protein abundance was 1.03 ± 0.037.

How did the NP40-soluble protein abundance turn out when UHRF2 (UniProt Q96PU4) was run?
Its NP40-soluble protein abundance is 1.05 ± 0.057.

TUBGCP3 (UniProt Q96CW5) was tested. Which NP40-soluble protein abundance did it give?
Its NP40-soluble protein abundance is 1.08 ± 0.08.

With PTCD3 (UniProt Q96EY7) as the target, how does the NP40-soluble protein abundance read?
Its NP40-soluble protein abundance is 1.02 ± 0.034.

UniProt Q96CS2 was tested. Which NP40-soluble protein abundance did it give?
Its NP40-soluble protein abundance is 0.997 ± 0.11.

Which NP40-soluble protein abundance does the source give for AJUBA (UniProt Q96IF1) here?
The NP40-soluble protein abundance was 1.02 ± 0.019.

With DPH3 (UniProt Q96FX2) as the target, how does the NP40-soluble protein abundance read?
The NP40-soluble protein abundance was 0.906 ± 0.15.

With UniProt Q96N46 and related entries as the target, how does the NP40-soluble protein abundance read?
Its NP40-soluble protein abundance is 0.984 ± 0.038.

For UniProt Q96JJ7, which NP40-soluble protein abundance is on record?
The NP40-soluble protein abundance was 0.966 ± 0.015.

MMAB (UniProt Q96EY8) was tested. Which NP40-soluble protein abundance did it give?
The NP40-soluble protein abundance was 0.991 ± 0.033.

Which NP40-soluble protein abundance does the source give for WDR92 (UniProt Q96MX6) here?
The NP40-soluble protein abundance was 1.03 ± 0.087.

How did the NP40-soluble protein abundance turn out when UniProt Q96KC2 was run?
Its NP40-soluble protein abundance is 1.07 ± 0.2.

Which NP40-soluble protein abundance does the source give for UniProt Q96PM5 and related entries here?
The NP40-soluble protein abundance was 1.02 ± 0.055.

How did the NP40-soluble protein abundance turn out when MCEE (UniProt Q96PE7) was run?
The NP40-soluble protein abundance was 0.952 ± 0.048.

How did the NP40-soluble protein abundance turn out when PDLIM5 (UniProt Q96HC4) was run?
The NP40-soluble protein abundance was 1.01 ± 0.032.

How did the NP40-soluble protein abundance turn out when UniProt Q96ST2 and related entries was run?
The NP40-soluble protein abundance was 0.859 ± 0.02.

Which NP40-soluble protein abundance does the source give for UniProt Q96D71 and related entries here?
The NP40-soluble protein abundance was 1.01 ± 0.078.

How did the NP40-soluble protein abundance turn out when UniProt Q96S66 and related entries was run?
The NP40-soluble protein abundance was 1 ± 0.057.

How did the NP40-soluble protein abundance turn out when UniProt Q96JG6 was run?
The NP40-soluble protein abundance was 1 ± 0.08.

Which NP40-soluble protein abundance does the source give for EAF1 (UniProt Q96JC9) here?
The NP40-soluble protein abundance was 0.936 ± 0.08.

For UniProt Q96IJ6 and related entries, which NP40-soluble protein abundance is on record?
Its NP40-soluble protein abundance is 1.02 ± 0.071.

ANKRD27 (UniProt Q96NW4) was tested. Which NP40-soluble protein abundance did it give?
Its NP40-soluble protein abundance is 1.02 ± 0.046.

Which NP40-soluble protein abundance does the source give for SNRNP40 (UniProt Q96DI7) here?
The NP40-soluble protein abundance was 1.13 ± 0.019.

With CCDC97 (UniProt Q96F63) as the target, how does the NP40-soluble protein abundance read?
Its NP40-soluble protein abundance is 0.958 ± 0.057.

With UniProt Q96K58 and related entries as the target, how does the NP40-soluble protein abundance read?
Its NP40-soluble protein abundance is 1.07 ± 0.086.

With UniProt Q96G23 as the target, how does the NP40-soluble protein abundance read?
The NP40-soluble protein abundance was 0.896 ± 0.062.

With DHTKD1 (UniProt Q96HY7) as the target, how does the NP40-soluble protein abundance read?
Its NP40-soluble protein abundance is 1.06 ± 0.08.

How did the NP40-soluble protein abundance turn out when OPTN (UniProt Q96CV9) was run?
The NP40-soluble protein abundance was 0.935 ± 0.065.

For METTL2A (UniProt Q96IZ6), which NP40-soluble protein abundance is on record?
Its NP40-soluble protein abundance is 0.992 ± 0.19.

For CCDC51 (UniProt Q96ER9), which NP40-soluble protein abundance is on record?
The NP40-soluble protein abundance was 0.998 ± 0.028.

How did the NP40-soluble protein abundance turn out when UniProt Q96S55 and related entries was run?
Its NP40-soluble protein abundance is 1.03 ± 0.037.

NSL1 (UniProt Q96IY1) was tested. Which NP40-soluble protein abundance did it give?
Its NP40-soluble protein abundance is 1.01 ± 0.048.

With TRMT61A (UniProt Q96FX7) as the target, how does the NP40-soluble protein abundance read?
Its NP40-soluble protein abundance is 0.973 ± 0.016.

With PANX1 (UniProt Q96RD7) as the target, how does the NP40-soluble protein abundance read?
Its NP40-soluble protein abundance is 0.96 ± 0.061.

Same assay, conditions: concentration: 2mM

Which NP40-soluble protein abundance does the source give for UniProt Q96DZ1 and related entries here?
Its NP40-soluble protein abundance is 1.02 ± 0.043.

Which NP40-soluble protein abundance does the source give for UniProt Q96RQ3 and related entries here?
The NP40-soluble protein abundance was 1.02 ± 0.018.

How did the NP40-soluble protein abundance turn out when UHRF2 (UniProt Q96PU4) was run?
Its NP40-soluble protein abundance is 1.05 ± 0.012.

TUBGCP3 (UniProt Q96CW5) was tested. Which NP40-soluble protein abundance did it give?
Its NP40-soluble protein abundance is 1.02 ± 0.077.

Which NP40-soluble protein abundance does the source give for PTCD3 (UniProt Q96EY7) here?
The NP40-soluble protein abundance was 0.961 ± 0.079.

With UniProt Q96CS2 as the target, how does the NP40-soluble protein abundance read?
Its NP40-soluble protein abundance is 0.939 ± 0.044.

For AJUBA (UniProt Q96IF1), which NP40-soluble protein abundance is on record?
Its NP40-soluble protein abundance is 0.982 ± 0.024.

How did the NP40-soluble protein abundance turn out when DPH3 (UniProt Q96FX2) was run?
Its NP40-soluble protein abundance is 0.917 ± 0.2.

With UniProt Q96N46 and related entries as the target, how does the NP40-soluble protein abundance read?
Its NP40-soluble protein abundance is 1.02 ± 0.052.

With UniProt Q96JJ7 as the target, how does the NP40-soluble protein abundance read?
The NP40-soluble protein abundance was 0.981 ± 0.011.

For MMAB (UniProt Q96EY8), which NP40-soluble protein abundance is on record?
The NP40-soluble protein abundance was 1 ± 0.05.

For WDR92 (UniProt Q96MX6), which NP40-soluble protein abundance is on record?
Its NP40-soluble protein abundance is 1.03 ± 0.054.

With UniProt Q96KC2 as the target, how does the NP40-soluble protein abundance read?
Its NP40-soluble protein abundance is 0.944 ± 0.055.

Which NP40-soluble protein abundance does the source give for UniProt Q96PM5 and related entries here?
Its NP40-soluble protein abundance is 1.04 ± 0.037.

With MCEE (UniProt Q96PE7) as the target, how does the NP40-soluble protein abundance read?
Its NP40-soluble protein abundance is 0.966 ± 0.024.

PDLIM5 (UniProt Q96HC4) was tested. Which NP40-soluble protein abundance did it give?
Its NP40-soluble protein abundance is 1 ± 0.03.

Which NP40-soluble protein abundance does the source give for UniProt Q96ST2 and related entries here?
Its NP40-soluble protein abundance is 0.834 ± 0.011.

For UniProt Q96D71 and related entries, which NP40-soluble protein abundance is on record?
The NP40-soluble protein abundance was 1.04 ± 0.058.

For UniProt Q96S66 and related entries, which NP40-soluble protein abundance is on record?
The NP40-soluble protein abundance was 0.985 ± 0.027.

UniProt Q96JG6 was tested. Which NP40-soluble protein abundance did it give?
The NP40-soluble protein abundance was 1 ± 0.024.

EAF1 (UniProt Q96JC9) was tested. Which NP40-soluble protein abundance did it give?
The NP40-soluble protein abundance was 0.92 ± 0.042.

How did the NP40-soluble protein abundance turn out when UniProt Q96IJ6 and related entries was run?
The NP40-soluble protein abundance was 0.995 ± 0.053.

Which NP40-soluble protein abundance does the source give for ANKRD27 (UniProt Q96NW4) here?
Its NP40-soluble protein abundance is 1.05 ± 0.067.

How did the NP40-soluble protein abundance turn out when SNRNP40 (UniProt Q96DI7) was run?
Its NP40-soluble protein abundance is 1.17 ± 0.08.

With CCDC97 (UniProt Q96F63) as the target, how does the NP40-soluble protein abundance read?
Its NP40-soluble protein abundance is 0.949 ± 0.056.

Which NP40-soluble protein abundance does the source give for UniProt Q96K58 and related entries here?
Its NP40-soluble protein abundance is 1.04 ± 0.047.

Which NP40-soluble protein abundance does the source give for UniProt Q96G23 here?
The NP40-soluble protein abundance was 0.962 ± 0.035.

With DHTKD1 (UniProt Q96HY7) as the target, how does the NP40-soluble protein abundance read?
The NP40-soluble protein abundance was 1.02 ± 0.078.

Which NP40-soluble protein abundance does the source give for OPTN (UniProt Q96CV9) here?
The NP40-soluble protein abundance was 0.96 ± 0.034.

METTL2A (UniProt Q96IZ6) was tested. Which NP40-soluble protein abundance did it give?
The NP40-soluble protein abundance was 0.916 ± 0.083.

How did the NP40-soluble protein abundance turn out when CCDC51 (UniProt Q96ER9) was run?
Its NP40-soluble protein abundance is 0.997 ± 0.019.

Which NP40-soluble protein abundance does the source give for UniProt Q96S55 and related entries here?
Its NP40-soluble protein abundance is 1.02 ± 0.05.

For NSL1 (UniProt Q96IY1), which NP40-soluble protein abundance is on record?
Its NP40-soluble protein abundance is 0.966 ± 0.017.

How did the NP40-soluble protein abundance turn out when TRMT61A (UniProt Q96FX7) was run?
Its NP40-soluble protein abundance is 1.01 ± 0.025.

Which NP40-soluble protein abundance does the source give for PANX1 (UniProt Q96RD7) here?
The NP40-soluble protein abundance was 0.94 ± 0.046.
